# Test results: the supplement of paper PMC10849652
# Sequences of proteins named here, by UniProt entry; tags and fusion partners are left off. A change or cut given only in a name is not applied to a line headed by its entry.
# UniProt Q15758: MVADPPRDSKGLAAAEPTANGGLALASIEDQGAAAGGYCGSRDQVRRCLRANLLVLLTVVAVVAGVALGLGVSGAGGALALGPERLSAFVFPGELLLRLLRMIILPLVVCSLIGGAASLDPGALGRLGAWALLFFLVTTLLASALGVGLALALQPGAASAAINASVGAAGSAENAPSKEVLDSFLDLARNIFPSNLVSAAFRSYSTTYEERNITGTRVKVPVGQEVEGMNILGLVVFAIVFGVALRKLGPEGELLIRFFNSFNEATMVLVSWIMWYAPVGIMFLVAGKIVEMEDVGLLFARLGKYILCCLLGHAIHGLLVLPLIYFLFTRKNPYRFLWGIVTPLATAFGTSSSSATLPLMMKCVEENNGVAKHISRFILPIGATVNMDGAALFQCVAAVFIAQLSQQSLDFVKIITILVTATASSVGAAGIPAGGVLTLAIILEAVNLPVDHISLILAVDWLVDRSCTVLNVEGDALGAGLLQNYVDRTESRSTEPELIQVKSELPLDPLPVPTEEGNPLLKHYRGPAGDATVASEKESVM
# UniProt Q9BZJ4: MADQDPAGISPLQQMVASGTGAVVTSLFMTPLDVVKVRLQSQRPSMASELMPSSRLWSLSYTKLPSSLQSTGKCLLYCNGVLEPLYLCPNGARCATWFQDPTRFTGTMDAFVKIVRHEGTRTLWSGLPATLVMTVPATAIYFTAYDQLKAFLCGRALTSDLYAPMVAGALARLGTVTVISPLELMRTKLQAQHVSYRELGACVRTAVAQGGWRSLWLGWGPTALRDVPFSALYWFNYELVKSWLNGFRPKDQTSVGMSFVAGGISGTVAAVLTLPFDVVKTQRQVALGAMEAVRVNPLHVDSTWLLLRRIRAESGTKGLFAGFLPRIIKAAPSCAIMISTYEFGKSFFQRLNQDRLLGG
# UniProt Q969S0: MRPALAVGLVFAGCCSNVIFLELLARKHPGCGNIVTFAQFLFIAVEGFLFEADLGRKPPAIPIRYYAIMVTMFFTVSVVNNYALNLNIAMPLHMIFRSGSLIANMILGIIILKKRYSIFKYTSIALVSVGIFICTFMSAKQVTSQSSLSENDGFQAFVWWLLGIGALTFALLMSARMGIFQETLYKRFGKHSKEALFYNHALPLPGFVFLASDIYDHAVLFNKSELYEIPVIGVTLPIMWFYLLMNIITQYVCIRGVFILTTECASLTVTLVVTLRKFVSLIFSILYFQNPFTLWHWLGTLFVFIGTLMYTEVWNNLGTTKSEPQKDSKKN
# UniProt O15431: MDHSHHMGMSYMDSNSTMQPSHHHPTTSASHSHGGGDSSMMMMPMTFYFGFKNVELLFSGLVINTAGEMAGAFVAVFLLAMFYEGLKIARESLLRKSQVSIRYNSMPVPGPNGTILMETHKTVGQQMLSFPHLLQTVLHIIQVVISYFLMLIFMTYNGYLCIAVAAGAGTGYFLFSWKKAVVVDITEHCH
# UniProt Q8NBW4: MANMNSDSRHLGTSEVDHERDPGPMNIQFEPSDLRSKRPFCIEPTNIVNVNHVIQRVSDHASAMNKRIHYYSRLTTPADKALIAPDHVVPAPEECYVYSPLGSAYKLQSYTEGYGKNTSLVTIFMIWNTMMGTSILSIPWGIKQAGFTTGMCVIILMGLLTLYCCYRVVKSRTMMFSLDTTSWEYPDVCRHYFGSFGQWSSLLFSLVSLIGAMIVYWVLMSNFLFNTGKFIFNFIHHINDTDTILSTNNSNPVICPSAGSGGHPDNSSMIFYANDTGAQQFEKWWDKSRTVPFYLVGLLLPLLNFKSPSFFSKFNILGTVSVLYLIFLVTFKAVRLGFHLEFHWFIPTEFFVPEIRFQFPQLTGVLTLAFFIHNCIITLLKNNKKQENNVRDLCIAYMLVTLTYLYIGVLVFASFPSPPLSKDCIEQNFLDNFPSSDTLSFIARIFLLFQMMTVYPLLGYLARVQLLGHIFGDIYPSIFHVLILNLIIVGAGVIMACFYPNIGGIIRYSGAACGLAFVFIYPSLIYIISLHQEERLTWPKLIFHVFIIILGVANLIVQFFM
# UniProt Q8N357: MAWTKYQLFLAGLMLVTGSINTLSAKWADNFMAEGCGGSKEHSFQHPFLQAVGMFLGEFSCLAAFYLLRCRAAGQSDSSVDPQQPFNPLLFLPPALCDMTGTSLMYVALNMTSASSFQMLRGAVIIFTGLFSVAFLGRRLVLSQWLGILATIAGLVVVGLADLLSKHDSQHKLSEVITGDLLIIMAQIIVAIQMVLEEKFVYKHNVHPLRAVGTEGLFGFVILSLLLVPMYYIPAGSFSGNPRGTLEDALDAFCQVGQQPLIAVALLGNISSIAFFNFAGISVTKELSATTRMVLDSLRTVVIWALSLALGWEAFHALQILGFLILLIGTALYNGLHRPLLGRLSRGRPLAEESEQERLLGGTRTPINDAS
# UniProt P48067: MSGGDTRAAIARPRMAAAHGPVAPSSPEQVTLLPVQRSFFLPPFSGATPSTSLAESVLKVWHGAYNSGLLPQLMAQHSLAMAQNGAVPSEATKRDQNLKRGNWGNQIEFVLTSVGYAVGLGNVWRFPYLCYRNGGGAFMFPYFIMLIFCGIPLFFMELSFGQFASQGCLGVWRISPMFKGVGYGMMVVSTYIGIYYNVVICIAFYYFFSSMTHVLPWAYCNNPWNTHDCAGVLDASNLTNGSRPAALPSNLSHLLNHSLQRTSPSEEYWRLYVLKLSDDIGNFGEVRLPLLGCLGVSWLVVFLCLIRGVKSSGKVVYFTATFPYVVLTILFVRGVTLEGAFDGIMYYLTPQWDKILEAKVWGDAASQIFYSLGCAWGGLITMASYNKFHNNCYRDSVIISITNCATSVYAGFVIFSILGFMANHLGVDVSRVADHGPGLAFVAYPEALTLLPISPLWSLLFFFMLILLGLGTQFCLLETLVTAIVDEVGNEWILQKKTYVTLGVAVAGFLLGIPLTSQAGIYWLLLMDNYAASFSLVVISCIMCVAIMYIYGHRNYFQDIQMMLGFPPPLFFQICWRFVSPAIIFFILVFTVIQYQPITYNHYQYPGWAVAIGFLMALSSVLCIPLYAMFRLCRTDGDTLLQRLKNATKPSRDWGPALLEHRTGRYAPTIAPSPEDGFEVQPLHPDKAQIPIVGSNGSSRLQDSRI
# UniProt Q9BS91: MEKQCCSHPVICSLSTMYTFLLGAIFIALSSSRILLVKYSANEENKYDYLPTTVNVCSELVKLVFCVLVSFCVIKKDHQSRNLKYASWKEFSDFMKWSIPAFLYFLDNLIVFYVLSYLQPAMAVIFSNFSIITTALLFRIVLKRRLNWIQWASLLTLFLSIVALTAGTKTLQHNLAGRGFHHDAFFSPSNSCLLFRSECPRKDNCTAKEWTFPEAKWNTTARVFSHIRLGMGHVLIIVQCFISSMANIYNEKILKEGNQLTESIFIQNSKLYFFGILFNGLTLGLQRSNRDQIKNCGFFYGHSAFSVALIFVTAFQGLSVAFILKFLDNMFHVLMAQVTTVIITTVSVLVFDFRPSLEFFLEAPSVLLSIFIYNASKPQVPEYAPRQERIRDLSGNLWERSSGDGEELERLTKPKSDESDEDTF
# UniProt O95258: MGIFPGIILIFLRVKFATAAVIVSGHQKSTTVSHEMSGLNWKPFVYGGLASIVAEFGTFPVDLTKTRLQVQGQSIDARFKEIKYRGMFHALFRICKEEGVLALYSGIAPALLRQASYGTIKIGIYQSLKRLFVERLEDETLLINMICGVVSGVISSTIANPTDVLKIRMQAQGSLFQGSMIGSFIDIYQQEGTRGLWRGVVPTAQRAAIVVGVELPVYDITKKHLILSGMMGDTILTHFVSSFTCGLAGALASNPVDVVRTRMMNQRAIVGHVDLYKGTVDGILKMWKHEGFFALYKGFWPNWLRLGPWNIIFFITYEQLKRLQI
# The other results are listed elsewhere or left out. Residues, ends and D or L forms follow the SMILES beside them. *: point of attachment. Cbz = O=C(OCc1ccccc1)*
# Tests used:
# Assay in all cases: log2 fold change, soluble protein after heating vs DMSO (PISA); higher = thermal stabilisation; K562 cells, 10 uM, 30 min; active = over 0.2 and 3.5 SD of the protein, either way, in both replicates (recomputed)
# erlotinib = compound: C#Cc1cccc(Nc2ncnc3cc(OCCOC)c(OCCOC)cc23)c1 [erlotinib]
# Method in brief: (§1)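 K562 cells at 2×10^6 cells/mL were treated with 10 μM compound for 30 min. Aliquots were heated for 3 min across 48°C-58°C, pooled, and extracted in PBS with 0.5% NP-40 at 4°C; soluble protein was the supernatant after 21,000xg for 90 min. Soluble protein was quantified by TMTpro 16plex LC-MS/MS with channel sums equalised, and reported as log2 fold change in thermal stability against DMSO controls, with values from duplicates.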
# [1] = compound: C/C(=N\NC(=O)C1=CC(=CC=C1)S(=O)(=O)N2CCOCC2)/C3=C(C=CC(=C3)Cl)O
# Method in brief: as §1
# [2] = compound: C1=CC(=C(C=C1Cl)C2=NC3=NC=CN=C3C(=N2)NC4=CC=NC=C4)F
# Method in brief: as §1
# [3] = compound: C1=CC(=CC=C1C2=NC3=C(N2)C=C(C=C3)C(=O)N)OC4=CC=C(C=C4)Cl
# Method in brief: as §1
# [4] = compound: C1=CC2=C(C=CC(=C2)/C=C\3/C(=O)NC(=NCC4=CC=CS4)S3)N=C1
# Method in brief: as §1
# [5] = compound: C1=CC2=NC=CN=C2C=C1/C=C/3\C(=O)NC(=O)S3
# Method in brief: as §1
# [6] = compound: C1=CC=C(C=C1)C2=NC(=C(N2)C3=CC=NC=C3)C4=CC(=C(C=C4)Cl)O
# Method in brief: as §1
# [7] = compound: C1=CC=C2C(=C1)C3=NNC4=CC=CC(=C43)C2=O
# Method in brief: as §1
# [8] = compound: C1CCN(C1)C(=O)NC2=CC=CC(=C2)NC3=NC=C(C(=N3)NCCC4=CN=CN4)Br
# Method in brief: as §1
# [9] = compound: C1CN(CCC1(CC2=CC=C(C=C2)Cl)N)C3=NC=NC4=C3C=CN4
# Method in brief: as §1
# IRAK-1-4 Inhibitor I = compound: C1COCCN1CCN2C3=CC=CC=C3N=C2NC(=O)C4=CC(=CC=C4)[N+](=O)[O-] [IRAK-1-4 Inhibitor I]
# Method in brief: as §1
# ibrutinib = compound: C=CC(=O)N1CCC[C@@H](n2nc(-c3ccc(Oc4ccccc4)cc3)c3c(N)ncnc32)C1 [ibrutinib]
# Method in brief: as §1
# [10] = compound: CC(=O)c1cnc2ccc(-c3cc(Cl)c(O)c(Cl)c3)nc2c1N[C@H]1CC[C@H](CN(C)C)CC1
# Method in brief: as §1
# ralimetinib = compound: CC(C)(C)Cn1c(N)nc2ccc(-c3[nH]c(C(C)(C)C)nc3-c3ccc(F)cc3)nc21 [ralimetinib]
# Method in brief: as §1
# [11] = compound: CC(C)(O)CC(=O)NCCn1ccc2ncnc(Nc3ccc(Oc4cccc(C(F)(F)F)c4)c(Cl)c3)c21
# Method in brief: as §1
# [12] = compound: CC(C)C1=C2N=C(C=C(N2N=C1)NCC3=CC=CC=C3)NCCCCCCN
# Method in brief: as §1
# [13] = compound: CC(C)C[C@@H](C=O)NC(=O)[C@H](CC(C)C)NC(=O)[C@H](CC(C)C)NC(=O)OCc1ccccc1
# Method in brief: as §1
# pinometostat = compound: CC(C)N(C[C@H]1O[C@@H](n2cnc3c(N)ncnc32)[C@H](O)[C@@H]1O)[C@H]1C[C@@H](CCc2nc3cc(C(C)(C)C)ccc3[nH]2)C1 [pinometostat]
# Method in brief: as §1
# [14] = compound: CC1=C(C2=C(C=C1)C(=O)C3=CC=CC=C3N2CCCN)C
# Method in brief: as §1
# [15] = compound: CC1=C(C(CC(=O)N1)C2=CC=C(C=C2)C(F)(F)F)C(=O)NC3=C(C=C4C(=C3)C=NN4)F
# Method in brief: as §1
Target,log2 fold change (erlotinib),log2 fold change [1],log2 fold change [2],log2 fold change [3],log2 fold change [4],log2 fold change [5],log2 fold change [6],log2 fold change [7],log2 fold change [8],log2 fold change [9],log2 fold change (IRAK-1-4 Inhibitor I),log2 fold change (ibrutinib),log2 fold change [10],log2 fold change (ralimetinib),log2 fold change [11],log2 fold change [12],log2 fold change [13],log2 fold change (pinometostat),log2 fold change [14],log2 fold change [15]
SLC1A5 (UniProt Q15758),inactive: -0.001,inactive: 0.003,inactive: 0.043,inactive: 0.002,inactive: -0.051,inactive: 0.006,inactive: 0.075,inactive: -0.046,inactive: -0.052,inactive: 0.089,inactive: 0.035,inactive: 0.028,inactive: 0.013,inactive: 0.046,inactive: -0.002,inactive: 0.23,inactive: -0.052,inactive: -0.034,inactive: -0.014,–
SLC25A39 (UniProt Q9BZJ4),inactive: -0.072,inactive: -0.217,inactive: 0.038,inactive: 0.062,inactive: 0.193,inactive: 0.118,inactive: -0.042,inactive: -0.046,inactive: -0.186,inactive: 0.112,inactive: 0.037,inactive: 0.032,inactive: 0.068,inactive: -0.035,inactive: -0.112,active: -0.673,inactive: 0.035,inactive: 0.294,inactive: -0.11,–
SLC35B4 (UniProt Q969S0),inactive: -0.055,inactive: 0.194,inactive: -0.033,inactive: 0.105,inactive: 0.085,inactive: 0.024,–,inactive: -0.243,inactive: -0.015,inactive: -0.231,inactive: 0.092,inactive: 0.023,inactive: 0.184,–,inactive: 0.098,inactive: -0.02,–,inactive: -0.056,inactive: 0.059,–
SLC31A1 (UniProt O15431),inactive: -0.024,inactive: -0.001,inactive: -0.053,inactive: -0.026,inactive: 0.003,inactive: 0.101,inactive: 0.162,inactive: -0.148,inactive: -0.038,inactive: 0.023,inactive: 0.098,inactive: 0.047,inactive: -0.017,inactive: -0.138,inactive: -0.075,inactive: 0.158,inactive: 0.017,inactive: -0.051,inactive: 0.057,–
SLC38A9 (UniProt Q8NBW4),inactive: 0.008,inactive: -0.023,inactive: -0.018,inactive: 0.02,inactive: 0.046,inactive: 0.063,inactive: -0.071,inactive: -0.011,inactive: -0.042,inactive: 0.055,inactive: -0.028,inactive: -0.005,inactive: -0.019,inactive: 0,inactive: 0.089,active: -0.368,inactive: 0.049,inactive: -0.023,inactive: -0.1,–
SLC35F6 (UniProt Q8N357),inactive: 0.12,inactive: -0.078,inactive: -0.008,inactive: -0.067,inactive: -0.013,inactive: -0.047,active: 0.417,inactive: -0.024,inactive: -0.057,inactive: 0.122,–,inactive: -0.002,inactive: -0.016,inactive: -0.18,inactive: 0.061,inactive: -0.22,inactive: 0.319,–,inactive: 0.078,–
SLC6A9 (UniProt P48067),inactive: 0.03,inactive: 0.053,–,inactive: -0.048,inactive: 0.029,inactive: 0.181,inactive: 0.005,inactive: -0.082,inactive: -0.104,inactive: 0.115,inactive: 0.117,inactive: -0.033,inactive: -0.065,inactive: -0.057,–,inactive: 0.098,inactive: 0.006,inactive: 0.046,inactive: 0.087,inactive: 0.008
SLC35A5 (UniProt Q9BS91),inactive: -0.037,inactive: -0.123,inactive: -0.08,inactive: 0.015,inactive: 0.054,–,–,inactive: -0.06,inactive: 0.06,inactive: -0.037,–,–,inactive: 0.027,–,inactive: -0.114,inactive: -0.016,–,–,inactive: 0.003,–
SLC25A14 isoform 3 (UniProt O95258),inactive: 0.015,inactive: -0.001,–,inactive: 0.026,inactive: 0.067,inactive: 0.098,inactive: 0.079,inactive: 0.002,inactive: 0.002,inactive: 0.208,inactive: 0.048,inactive: -0.098,inactive: 0.088,inactive: 0.019,–,inactive: 0.043,inactive: -0.058,inactive: -0.022,inactive: 0.011,inactive: -0.026
